Experimental data: doi:10.1101/2021.12.09.472000
No constants are given. Whether binding was seen depends on the method and setting. In cells and extracts the contact can be indirect. Some results given as binding are weak or reduced against the parent protein; the word gives no strength.

What was measured:
Experiment in all cases: FRET or BRET
[1] = molecular target: T25N variant human 5-HT2A receptor with C-terminal RLuc8 (human) (UniProt P28223)
[2] = molecular target: D48N variant human 5-HT2A receptor with C-terminal RLuc8 (human) (UniProt P28223)
[3] = molecular target: S12N variant human 5-HT2A receptor with C-terminal RLuc8 (human) (UniProt P28223)
[4] = molecular target: H452Y variant human 5-HT2A receptor with C-terminal RLuc8 (human) (UniProt P28223)
[5] = molecular target: I197V variant human 5-HT2A receptor with C-terminal RLuc8 (human) (UniProt P28223)
[6] = molecular target: A230T variant human 5-HT2A receptor with C-terminal RLuc8 (human) (UniProt P28223)
[7] = molecular target: A447V variant human 5-HT2A receptor with C-terminal RLuc8 (human) (UniProt P28223)
[8] = molecular target: human 5-HT2A serotonin receptor, wild type, with C-terminal Renilla luciferase (RLuc8) (human) (UniProt P28223)

Measured: binding

Venus-tagged N-terminal β-arrestin1 (from UniProt P49407 1-418)
binds: all assays above
